## Cleaved PARP after 72 h of treatment

Values as published with doi:10.1371/journal.pone.0140310, rounded.

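Human melanoma cell lines in 1,536-well plates were treated with a pair of drugs for 72 h, then fixed, stained and imaged. Each value is the cleaved-PARP-positive fraction of nuclei relative to DMSO-treated wells, in %, so that 100 equals the control and higher values mean more apoptosis. Every drug was used at one fixed concentration, the higher of two screened. No replicate spread is given; individual values may be noisy. Basal and induced levels differ widely between cell lines.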 This is part of the screen, not chosen by result. An entry leaves out what has no value listed here. A dash means that no value is listed here.

All values are for the listed drug together with stibogluconate (10 µM): O=C(O)[C@@H]1[O][Sb](=[O])([O][Sb]2(=[O])[O][C@H]([C@H](O)CO)[C@H](O)[C@H](C(=O)O)[O]2)[O][C@H]([C@H](O)CO)[C@@H]1O (stereo not given in full)

Second drug,SK-MEL-2,RPMI-7951,UACC-257,WM115,WM3526,MEL-HO
Clc1ccc(Nc2nnc(Cc3ccncc3)c3ccccc23)cc1 at 10 µM,153,85.6,78.8,216,238,77.5
COc1cc2c(Oc3ccc4[nH]c(C)cc4c3F)ncnc2cc1OCCCN1CCCC1 at 2 µM,114,176,93.8,149,178,135
C[As](C)SC[C@H](NC(=O)CC[C@H](N)C(=O)O)C(=O)NCC(=O)O at 2 µM,98.5,167,58.5,165,163,49.6
CC(C)CCN1c2nc(Nc3cc(F)c(O)c(F)c3)ncc2N(C)C(=O)C1C (stereo not given) at 1 µM,51.8,152,22.7,80.5,197,468
COc1ccc(-c2ccc3c(N4CCOCC4)nc(N4C[C@@H](C)O[C@@H](C)C4)nc3n2)cc1CO at 0.1 µM,64.1,151,80.7,149,161,156
CS(=O)(=O)CCNCc1ccc(-c2ccc3ncnc(Nc4ccc(OCc5cccc(F)c5)c(Cl)c4)c3c2)o1 at 4 µM,85.4,1000,28.6,46.5,204,97.7
O=C1NC(=O)/C(=C/c2ccc(-c3ccc(F)cc3O)o2)S1 at 5 µM,75.0,114,25.8,58.7,86.0,138
CS(=O)(=O)c1ccc(C(=O)Nc2ccc(Cl)c(-c3ccccn3)c2)c(Cl)c1 at 5 µM,100,30.0,95.2,124,73.5,69.5
O=C(Nc1ccccc1)c1cc([N+](=O)[O-])ccc1Cl at 10 µM,62.5,220,57.3,166,133,126
N#CC[C@H](C1CCCC1)n1cc(-c2ncnc3[nH]ccc23)cn1 at 5 µM,48.7,163,105,-,102,58.9
C[C@@H](Oc1cc(-c2cnn(C3CCNCC3)c2)cnc1N)c1c(Cl)ccc(F)c1Cl at 1 µM,132,30.2,32.5,336,67.9,52.0
O=C(Nc1cccc(Cl)c1)Nc1ncc(CCNc2ncnc3ccsc23)s1 at 0.004 µM,180,283,50.3,260,404,104
Cn1cnc2c(F)c(Nc3ccc(Br)cc3Cl)c(C(=O)NOCCO)cc21 at 0.075 µM,301,100,32.8,198,295,46.2
NC1(c2ccc(-c3nc4ccn5c(=O)[nH]nc5c4cc3-c3ccccc3)cc2)CCC1 at 2 µM,100,167,41.3,112,130,42.9
CN1CCN(c2ccc3nc(-c4c(N)c5c(F)cccc5[nH]c4=O)[nH]c3c2)CC1 at 0.5 µM,94.8,166,152,290,170,98.4
Cc1cc(SCc2sc(-c3ccc(C(F)(F)F)c(F)c3)nc2C)ccc1OCC(=O)O at 10 µM,59.0,83.7,51.4,69.7,134,88.5
CCN(CC)CCCCNc1ncc2cc(-c3cc(OC)cc(OC)c3)c(NC(=O)NC(C)(C)C)nc2n1 at 0.5 µM,88.4,110,48.1,102,82.7,42.4
Nc1nc(F)nc2c1ncn2[C@@H]1O[C@H](CO)[C@@H](O)[C@@H]1O at 1 µM,1210,211,7880,203,3480,199
Cc1nc(Nc2ncc(C(=O)Nc3c(C)cccc3Cl)s2)cc(N2CCN(CCO)CC2)n1 at 0.02 µM,160,342,707,566,180,244
Cn1nnc2c(C(N)=O)ncn2c1=O at 10 µM,121,80.3,62.5,90.9,53.7,190
CO[C@H]1C[C@@H]2CC[C@@H](C)[C@@](O)(O2)C(=O)C(=O)N2CCCC[C@H]2C(=O)O[C@H]([C@H](C)C[C@@H]2CC[C@@H](OCCO)[C@H](OC)C2)CC(=O)[C@H](C)/C=C(\C)[C@@H](O)[C@@H](OC)C(=O)[C@H](C)C[C@H](C)/C=C/C=C/C=C/1C at 0.1 µM,181,47.0,114,174,161,114
COc1cc(N2CCC(N3CCN(C)CC3)CC2)ccc1Nc1ncc(Cl)c(Nc2ccccc2S(=O)(=O)C(C)C)n1 at 0.4 µM,110,85.4,33.9,89.1,155,48.8
Cn1c(=O)n(-c2ccc(C(C)(C)C#N)cc2)c2c3cc(-c4cnc5ccccc5c4)ccc3ncc21 at 0.02 µM,160,46.1,86.7,353,142,115
COc1ccc(COc2ccc(Cc3cnc(N)nc3N)cc2OC)cc1 at 5 µM,63.5,77.0,38.6,59.9,69.1,42.6
CCN(CC)CCNC(=O)c1c(C)[nH]c(/C=C2\C(=O)Nc3ccc(F)cc32)c1C at 2 µM,89.6,211,25.0,392,245,51.8
CCCCCCCCCCCC1=C(O)C(=O)C=C(O)C1=O at 6 µM,104,44.8,50.9,167,89.1,122
CCCCCCCCc1ccc(CCC(N)(CO)CO)cc1 at 10 µM,84.0,218,48.0,1220,4970,120
C=CCNC1=C2C[C@@H](C)C[C@H](OC)[C@H](O)[C@@H](C)/C=C(\C)[C@H](OC(N)=O)[C@@H](OC)/C=C\C=C(/C)C(=O)NC(=CC1=O)C2=O at 0.01 µM,159,489,64.3,2790,232,88.9
COc1ccc(C2=N[C@@H](c3ccc(Cl)cc3)[C@@H](c3ccc(Cl)cc3)N2C(=O)N2CCNC(=O)C2)c(OC(C)C)c1 at 0.5 µM,106,44.8,54.7,74.2,108,120

For reference, 4 entries once more:

* Cc1cc(SCc2sc(-c3ccc(C(F)(F)F)c(F)c3)nc2C)ccc1OCC(=O)O at 10 µM | SK-MEL-2: 59.0; RPMI-7951: 83.7; UACC-257: 51.4; WM115: 69.7; WM3526: 134; MEL-HO: 88.5
* Cn1c(=O)n(-c2ccc(C(C)(C)C#N)cc2)c2c3cc(-c4cnc5ccccc5c4)ccc3ncc21 at 0.02 µM | SK-MEL-2: 160; RPMI-7951: 46.1; UACC-257: 86.7; WM115: 353; WM3526: 142; MEL-HO: 115
* CC(C)CCN1c2nc(Nc3cc(F)c(O)c(F)c3)ncc2N(C)C(=O)C1C (stereo not given) at 1 µM | SK-MEL-2: 51.8; RPMI-7951: 152; UACC-257: 22.7; WM115: 80.5; WM3526: 197; MEL-HO: 468
* C=CCNC1=C2C[C@@H](C)C[C@H](OC)[C@H](O)[C@@H](C)/C=C(\C)[C@H](OC(N)=O)[C@@H](OC)/C=C\C=C(/C)C(=O)NC(=CC1=O)C2=O at 0.01 µM | SK-MEL-2: 159; RPMI-7951: 489; UACC-257: 64.3; WM115: 2790; WM3526: 232; MEL-HO: 88.9